Source: patent US20260078089A1, “BIOACTIVE PHYTOCHEMICALS IN ZIZYPHUS AND GUARANA” (Phytoquest Limited, priority 2018, published 2026)
Entries after “also recorded” stand apart in the source; their conditions may differ. At least one structure is not confirmed: it was looked up by name or label, or the drawing left a doubt.

Columns and labels:
α-D-glucosidase = assay: Glycosidase assay, p-nitrophenyl substrate; type: biochemical; details: Bacillus sterothermphilus enzyme; screened at 0.14 mg mL−1 (footnote: 0.4 mM)
Description: (§1) Glycosidase assays were conducted as described by Watson et al. (Phytochemistry 1997, 46, 255) using p-nitrophenyl-substrates (except sialidase which used methylumbeliferyl-N-acetyineuraminic acid as substrate). Assays were carried out in microtitre plates. Enzymes were assayed in 0.1 M citric acid/0.2 M di-sodium hydrogen phosphate (McIlvaine) buffers at the optimum pH for the enzyme. All assays were carried out at 20° C. All enzymes and substrates were purchased from Sigma Aldrich Chemicals Limited. The incubation mixture consisted of 10 μl of enzyme solution, 10 μl of the iminosugars solution and 50 μl of the appropriate 5 mM p-nitrophenyl substrate made up in McIlvaine buffer at the optimum pH for the enzyme. The reactions were stopped with 0.4 M glycine (pH 10.4) during the exponential phase of the reaction. Absorbances were read at 405 nm. Water was substituted for the alkaloids in the blanks. Reactions were carried out in triplicate.
(§2) Enzyme inhibitor solutions—Compounds were dissolved in distilled water at a concentration of 1 mg mL^−1 and then screened at a concentration of 0.14 mg mL^−1 after dilution of the 1 mg mL^−1 in the assay volumes of substrates.

β-D-galactosidase = assay: Glycosidase assay, p-nitrophenyl substrate; type: biochemical; details: Bovine liver enzyme; screened at 0.14 mg mL−1 (footnote: 0.4 mM)
Description: as §1, §2

[1] = tested on: sialidase (NanH from T. forsythia); assay: Sialidase assay with MUNANA substrate; type: biochemical, Tannerella forsythia
Description: (§3) Sialidase assays used 1 mM inhibitor (or water without inhibitor) and 2.5 nM sialidase (including NanH from T. forsythia) incubated in the presence of 0.1 mM methylumbeliferyl-N-acetylneuraminic acid, pH 7.2 in 20 mM sodium phosphate buffer. Reactions were stopped at 30 seconds and 60 seconds via addition of ph 10.5 60 mM sodium carbonate buffer. Release of fluorogenic MU was quantified by measuring fluorescence emission at 450 nm, excitation 350 nm. Percentage sialidase activity was expressed as the change in fluorescence between 30 seconds and 60 seconds compared to that of a reaction without inhibitor. Reactions were carried out in triplicate.
MU release can be used to quantify sialidase activity.
as §3, with “1” for “Sialidase assays used 1”, “forsythia) was” for “forsythia)”, “MUNANA,” for “methylumbeliferyl-N-acetylneuraminic acid,”, “7.2” for “7.2 in”, “Sodium Phosphate” for “sodium phosphate”

Row | SMILES | % inhibition (α-D-glucosidase) [%] | % inhibition (β-D-galactosidase) [%] | % inhibition ([1]; 1 mM inhibitor, 2.5 nM sialidase, 0.1 mM MUNANA, pH 7.2) [%] | sialidase inhibition (in words) ([1]; sialidase from the bacterium T. forsythia)
1 | CN1C[C@@H](CO)C[C@H]1C(=O)O [Compound 1, N-methyl-4S-(hydroxymethyl)-2S-pyrrolidinecarboxylic acid] | 22 | <5 | 50 | only inhibition seen; also recorded: inhibited the sialidase of Tannerella forsythia
2 | CN1C[C@](O)(CO)C[C@H]1C(=O)O [Compound 3, N-methyl-4-hydroxy-4S-(hydroxymethyl)-2S-pyrrolidinecarboxylic acid] | 13 | <5 |  | 
